No constants are given. Whether binding was seen depends on the method and setting. For some of these results: Binding seen in cells or lysates may run through a third protein. Some results given as binding are weak or reduced against the parent protein; the word gives no strength.
Columns and labels:
[1] = target: HA epitope-tagged sheep APJ (apelin receptor) (Ovis aries); test: radioligand binding; competition: HEK293 cells with surface expression of HA-tagged sheep APJ incubated with 0.2 nM [125I]-(pyr1)APLN-13 and cold APLN-13 or ELA (10^-11 to 10^-5 M), 1 h, room temperature; γ-counter; only the binder purified
[2] = target: sheep APJ-GFP10 (Ovis aries); test: FRET or BRET; BRET2 between sheep APJ-GFP10 and RlucII-β-arrestin2 in transfected HEK293 cells; stimulated with APLN-13 or ELA (10^-5 to 10^-11 M), 37 °C, 30 min; coelenterazine 400A

Amino acid sequences for entries named in this document (tags omitted). A change or cut given only in a name is not applied to a line headed by its entry.
UniProt Q9ULZ1: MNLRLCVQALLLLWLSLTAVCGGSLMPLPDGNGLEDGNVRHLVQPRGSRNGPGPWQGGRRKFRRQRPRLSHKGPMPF
UniProt P32121: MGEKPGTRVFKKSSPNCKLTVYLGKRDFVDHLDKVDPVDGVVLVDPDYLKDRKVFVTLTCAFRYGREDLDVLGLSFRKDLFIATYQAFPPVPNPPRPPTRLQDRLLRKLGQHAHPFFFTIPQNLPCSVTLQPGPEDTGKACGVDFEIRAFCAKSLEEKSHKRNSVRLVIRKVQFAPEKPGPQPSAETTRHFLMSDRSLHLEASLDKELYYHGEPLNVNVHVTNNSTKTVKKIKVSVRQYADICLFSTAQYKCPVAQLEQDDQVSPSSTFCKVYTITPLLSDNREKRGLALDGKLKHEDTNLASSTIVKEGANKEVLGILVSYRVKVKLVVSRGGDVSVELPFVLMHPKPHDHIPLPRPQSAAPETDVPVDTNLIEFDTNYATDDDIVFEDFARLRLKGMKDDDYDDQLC

Molecule	binding [1]	binding [2]
[125I]-(pyr1)Apelin(APLN)-13 (from UniProt Q9ULZ1 65-77) (peptide)	binds	–
human apelin-13 (APLN-13), unlabelled (from UniProt Q9ULZ1 65-77) (peptide)	binds	–
RlucII-β-arrestin2 (from UniProt P32121 1-409)	–	binds
QRPVNLTMRRKLRKHNCLQRRCMPLHSRVPFP (peptide, UniProt P0DMC3 23-54) [human Elabela (ELA)]	binds	–

Source: paper PMC8611018, “Apelin-13 in septic shock: effective in supporting hemodynamics in sheep but compromised by enzymatic breakdown in patients” (Scientific Reports, 2021)
